# Some entries share one result that the patent states for a list of compounds. For at least one compound, name, drawing or mass did not settle the structure.
# Test system: CD8+CD45RA+CCR7+CD62L+ T cells
# Experiment: Flow cytometry for CD8, CD45RA, CCR7 and CD62L on inhibitor-treated T cells
# Assay type: cell-based, human
# Conditions: cultured 14 days, untreated sample 56.3%
# Experimental: DAY 0: Blood was obtained from unidentified donor. After RBC lysis, PBMC were collected using Ficoll-Hypaque separation. […] T cells were cultured in three different conditions: • 1. XVIVO 15 medium (Lonza) with IL2 50 IU/ml, CD3 antibody (30 ng/ml) and CD28 antibody (30 ng/ml). • 2. XVIVO 15 medium (Lonza) with CD3 antibody (30 ng/ml) and CD28 antibody (30 ng/ml). • 3. XVIVO 15 medium (Lonza) with IL2 50 IU/ml DAY 1: Cells were plated in a 6-well plate at a density of 1 million cells in 2 ml/of media (as described above) and treated with different inhibitors
# (§1) A second aliquot of the cells cultured for 13 days with all the treatments listed above (1-21) was washed with PBS+1% FBS, stained with CD8-PerCP, CD45RA-FITC, CCR7-PE and CD62L-APC (5% Y/100 μl/sample for each of 4 antibodies) at 4° C. for 1 h, washed twice with PBS+100 FBS and analyzed on flow cytometer to check if these drugs are enriching T stem cells showing surface expression of CD8+CD45RA+CCR7+CD62L+.
# Day 0: Blood was obtained from unidentified donor. After RBC lysis, PBMC were collected using Ficoll-Hypaque separation. 200 million T cells were isolated from PBMCs using CD3 microbeads. T cells were cultured overnight in XVIVO 15 medium (Lonza) with IL2 (50 IU/ml), 30 ng/ml of CD3 and CD28 antibodies
# Day 1: Cells were plated in 24-well plates at a density of 0.3 million cells/ml in each well and treated with different drugs.
# On day 7, culture medium was replaced with fresh medium with fresh drugs.
# On day 13, culture medium was replaced with fresh medium and fresh drugs. Half of the cells were transferred to 6-well plates.
# as §1, with “14” for “13”, “above” for “above (1-21)”, “(5 ul/100 ul/sample” for “(5% Y/100 μl/sample”, “PBS+1%” for “PBS+100”, “enriching for” for “enriching”, “T” for “T stem”
Structure (SMILES),% of CD8+/CD45RA+/CCR7+/CD62L+ cells (100 nM),% of CD8+/CD45RA+/CCR7+/CD62L+ cells (500 nM),% of CD8+/CD45RA+/CCR7+/CD62L+ cells (1 μM),other results
COc1cc(-c2cn(C)c(=O)c3cnccc23)c(OC)cc1CN(C)C [B9564],> 70%,> 70%,,
CCS(=O)(=O)N1CCC([C@@H](C)n2c(C)c(C(=O)NCc3c(OC)cc(C)[nH]c3=O)c3ccccc32)CC1 [CP1169],> 70%,,,% of CD8+/CD45RA+/CCR7+/CD62L+ cells (200 nM): > 70%
CS(=O)(=O)c1ccc(-c2cnc(NCc3ccco3)n3cnnc23)cc1 [EED226],,> 70%,> 70%,
CCC(CC)n1ccc2c(C(=O)NCc3c(C)cc(C)[nH]c3=O)cc(C#N)cc21 [EI1],,> 70%,> 70%,
Cc1cc(C)c(CNC(=O)c2cc(-c3ccc(CN4CCOCC4)cc3)cc3c2cnn3C2CCCC2)c(=O)[nH]1 [EPZ005687],> 70%,,,% of CD8+/CD45RA+/CCR7+/CD62L+ cells (10 nM): > 70%
CCN(c1cc(C#CCN2CCOCC2)cc(C(=O)NCc2c(C)cc(C)[nH]c2=O)c1C)[C@H]1CC[C@H](N(C)CCOC)CC1 [EPZ011989],,> 70%,> 70%,
CC[C@H](C)n1cc(C)c2c(C(=O)NCc3c(C)cc(C)[nH]c3=O)cc(-c3ccc(N4CCNCC4)nc3)cc21 [GSK126],> 70%,> 70%,,
Cc1cc(C)c(CNC(=O)c2cc(-c3ccc(N4CCN(C)CC4)nc3)cc3c2c(C)cn3C(C)C)c(=O)[nH]1 [GSK503],,,> 70%,% of CD8+/CD45RA+/CCR7+/CD62L+ cells (2 μM): > 70%
CCn1cc(-c2cccc(C(F)(F)F)c2)c2sc(C(=N)NC3CCS(=O)(=O)CC3)cc2c1=O [IBRD9],,> 70%,> 70%,
Cc1cc(=O)n(C)c2cc(N3C(=O)CC[C@H](NS(=O)(=O)CC(C)C)[C@H]3c3ccc(Cl)cc3)ccc12 [LP99],,> 70%,> 70%,
CCCc1cc(C)[nH]c(=O)c1CNC(=O)c1cc(-c2ccc(N3CCN(C(C)C)CC3)nc2)cc2c1cnn2C(C)C [UNC1999],> 70%,> 70%,,
